# Test results reported in patent US20040265797A1.
# Chains of the proteins cited; added tags and fusions are not shown. Residues count along the entry.
# UniProt Q03405, residues 23-299: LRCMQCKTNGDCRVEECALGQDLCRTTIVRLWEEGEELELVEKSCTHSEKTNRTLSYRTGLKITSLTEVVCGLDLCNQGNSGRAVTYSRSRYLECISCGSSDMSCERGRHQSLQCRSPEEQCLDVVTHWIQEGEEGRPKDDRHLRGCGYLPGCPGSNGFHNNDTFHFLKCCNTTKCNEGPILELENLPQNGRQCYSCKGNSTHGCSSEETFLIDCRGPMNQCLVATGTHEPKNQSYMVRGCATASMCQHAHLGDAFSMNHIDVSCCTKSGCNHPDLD
# No constants are given. Whether binding was seen depends on the method and setting. Some results given as binding are weak or reduced against the parent protein; the word gives no strength.
# Target: Soluble recombinant human urokinase receptor (suPAR) (human) (UniProt Q03405)
# Assay: alanine scan of peptide 9; competition with phage displaying peptide 9
row,binding,Binder
1,binds,"AAFFKLGPNGYVYLHSA (C-terminal carboxamide) [Analog 65 (peptide 9, Glu at position 2 to alanine)]"
2,binds,"AEFAKLGPNGYVYLHSA (C-terminal carboxamide) [Analog 67 (peptide 9, Phe at position 4 to alanine)]"
3,binds,"AEFFKLGPNGYVYAHSA (C-terminal carboxamide) [Analog 77 (peptide 9, Leu at position 14 to alanine)]"

# Target: Soluble recombinant human urokinase receptor (suPAR) (human) (UniProt Q03405)
# Assay: competition with phage displaying peptide 25 for uPAR; Active? @ 40 µM
row,binding,Binder
1,binds,AESTYHHLSLGYMYTLN (N-terminal acetyl; C-terminal amide (Ac-oligomer-NH2)) [Analog 5]
2,binds,YHHLSLGYMYT (N-terminal acetyl; C-terminal amide (Ac-oligomer-NH2)) [Analog 28]
3,binds,STYHHLSLGYMYTLN (N-terminal acetyl; C-terminal amide (Ac-oligomer-NH2)) [Analog 16]
4,binds,AESTYHHLSLGYMYT (N-terminal acetyl; C-terminal amide (Ac-oligomer-NH2)) [Analog 7]
5,binds,TYHHLSLGYMYTLN (N-terminal acetyl; C-terminal amide (Ac-oligomer-NH2)) [Analog 17]
6,binds,YHHLSLGYMYTLN (N-terminal acetyl; C-terminal amide (Ac-oligomer-NH2)) [Analog 18]
7,binds,ESTYHHLSLGYMYTLN (N-terminal acetyl; C-terminal amide (Ac-oligomer-NH2)) [Analog 15]
8,binds,AESTYHHLSLGYMYTL (N-terminal acetyl; C-terminal amide (Ac-oligomer-NH2)) [Analog 6]
